Test results as given in PubChem BioAssay AID540276 (National Center for Advancing Translational Sciences (NCATS), 2011).
Several values for one entry are separate records, joined by “and”; a condition that tells them apart may be missing. Equal values may be shown once. Screen size: about 300,000 compounds; about 5,400 (1.8%) were called active. This list was built around the results that the source calls inconclusive (neither active nor inactive); the mix of calls is not that of the screen. Calls follow the shape of the full dose curve; tested in HEK293 cells. Where the call is inconclusive, the potency comes from a doubtful curve fit.
% is scaled to controls: 0 for no effect and ±100 for the full control effect; potency is read from the fitted curve at half-maximal effect.

Experiment: qHTS for inhibitors of binding or entry into cells for Marburg Virus
Conditions: Marburg virus pseudotyped entry inhibition, cell reporter; activity change, negative = inhibition: at 37.8 µM (top of the series) unless noted
In the case of `O=[N+]([O-])c1ccc(N2CC2)c([N+](=O)[O-])c1`, the Potency is reported as inconclusive: 31.6 µM [inhibitor, single point].
For `CC(=O)N1CCN(c2ccc(S(=O)(=O)N3CCCCC3)cn2)CC1`, the Potency was inconclusive: 4.11 µM [activator, partial curve, poor fit].
With `O=C(NC1CCCc2ccccc21)C1CCN(S(=O)(=O)c2cccc(C(F)(F)F)c2)CC1` (stereo not given) the Potency was inconclusive: 16.4 µM [activator, partial curve, poor fit].
In the case of `CC(=O)NCc1ccc(S(=O)(=O)NC(C(=O)O)C(C)C)cc1` (stereo not given), the Potency is reported as “inactive”.
For `Cc1ccc(S(=O)(=O)N(c2nc(NC(C)C)nc(NC(C)C)n2)n2cnnc2)cc1`, the Potency was inconclusive: 35.5 µM [activator, single point].
With `N#Cc1nc(COc2cccc(Cl)c2)oc1NCc1ccncc1` the Potency was “inactive”.
For `COc1ccc(CCNc2oc(COc3ccccc3F)nc2C#N)cc1OC`, the Potency was inconclusive: 10 µM [inhibitor, partial curve, poor fit].
With `COc1ccc2nc(NC(=O)c3cc(S(=O)(=O)N4CCOCC4)ccc3C)sc2c1` the Potency was “inactive”.
With `COc1ccc(Cl)cc1NC(=O)CN(C)C(=O)c1cc2c(s1)CCCC2` the Potency was inconclusive: 25.1 µM [inhibitor, single point].
With `CC(=O)c1ccc(N=Nc2ccc(C)cc2)cc1` the Potency was inconclusive: 14.1 µM [inhibitor, single point].
With `COc1ccc(NC(=O)c2ccc(NC(=O)CCS(=O)(=O)c3cccs3)cc2)cc1` the Potency was “inactive and inconclusive: 35.5 µM [activator, single point]”.
For `COc1ccc(/C=C/C(=O)c2ccc(Cl)s2)cc1O`, the Potency was “inactive”.
For `O=C1CSC(c2ccncc2)N1Cc1ccco1` (stereo not given), the Potency was inconclusive: 0.58 µM [activator, single point].
With `Cc1cc(-c2ccccc2)nc(N(C)NC(=O)c2cccc(C(F)(F)F)c2)c1S(C)(=O)=O` the Potency was inconclusive: 31.6 µM [activator, single point].
For `O=C(CN1CCN(C(=O)c2ccco2)CC1)Nc1ccc(Cl)c(S(=O)(=O)N2CCOCC2)c1`, the Potency was “inactive”.
In the case of `CCOc1ccc2c(c1)c(=O)c(S(=O)(=O)c1ccc(Cl)cc1)cn2Cc1ccccc1C`, the Potency is reported as inconclusive: 5.62 µM [inhibitor, single point].
In the case of `Cc1ccc(C)c(S(=O)(=O)N2CCCCC2CCNC(=O)C(=O)NC2CCCC2)c1` (stereo not given), the Potency is reported as inconclusive: 14.1 µM [inhibitor, single point].
With `O=C(CSc1nc2ccccc2c(=O)n1-c1ccccc1)NC(=O)CN1CCCC1=O` the Potency was “inactive”.
In the case of `Cc1ccc(CNC(=O)C2(C)Oc3ccccc3NC2=O)cc1` (stereo not given), the Potency is reported as “inactive”.
In the case of `Cc1ccc2c(CC(=O)NCc3cccs3)coc2c1`, the Potency is reported as inconclusive: 3.16 µM [activator, single point].
With `O=C(O)C1CCN(C(=O)Cc2ccccc2)CC1` the activity change, negative = inhibition was inconclusive: 3.11% [activator] [at 46.1 µM].
For `Cc1ccccc1OCc1ccc(-c2nc(C#N)c(N3CCC(C(N)=O)CC3)o2)o1`, the Potency was inconclusive: 5.62 µM [inhibitor, partial curve, poor fit].
For `CC(=O)N1CCN(Cc2nc3cc(NC(=O)COc4cccc(C)c4)ccc3n2C)CC1`, the Potency was inconclusive: 10 µM [inhibitor, partial curve, poor fit].
For `COC(=O)[C@](NC(=O)c1ccccc1)(Nc1nc(C)cs1)C(F)(F)F`, the Potency was “inactive”.
For `COc1cc(C(=O)N2CCN(C)C(C)C2)ccc1OC1CCN(C(C)=O)CC1` (stereo not given), the Potency was inconclusive: 3.98 µM [activator, partial curve, poor fit].
With `COc1cccc(/C=N/Nc2cc(Cl)nc(C)n2)c1O` the Potency was “inactive”.
In the case of `O=C(c1nc2ccccn2c1CNCC1OCCc2ccccc21)N1CCOCC1` (stereo not given), the Potency is reported as inconclusive: 20 µM [inhibitor, single point].
In the case of `CNC(=O)NC(=O)COC(=O)c1ccccc1OCc1ccccc1`, the Potency is reported as inconclusive: 15.8 µM [inhibitor, single point].
In the case of `Cn1cccc1CC(=O)NNC(=S)Nc1ccccc1Cl`, the Potency is reported as “inactive”.
For `Cc1cc(S(=O)(=O)N2CCCC2)ccc1OCC(=O)NCc1ccccn1`, the Potency was “inactive”.
For `Cc1cccc(C(=O)NNC(=S)NC(=O)c2cccs2)c1`, the Potency was inconclusive: 22.4 µM [inhibitor, single point].
For `Cc1ccc(N(CC(=O)Nc2cc(Cl)ccc2Oc2ccccc2)S(C)(=O)=O)c(C)c1`, the Potency was inconclusive: 35.5 µM [inhibitor, single point].
With `O=C(CSc1nnc(NC(=O)c2ccccc2F)s1)NCC1CCCO1` (stereo not given) the Potency was inconclusive: 1.12 µM [activator, full curve].
In the case of `Cc1ccc(N2CC(C)Cn3c2nc2c3c(=O)n(CC(=O)OCc3ccccc3)c(=O)n2C)cc1C` (stereo not given), the Potency is reported as “inactive”.
In the case of `O=c1c2c3c(sc2n(Cc2ccc(F)cc2Cl)c(=O)n1-c1ccc(Cl)cc1)CCC3`, the Potency is reported as “inactive”.
For `Cc1ccc(C)c(N2CCN(c3nc4ccccc4c(=O)n3-c3ccccc3)CC2)c1`, the Potency was “inactive”.
With `COCCn1c(SCC(=O)c2c(-c3ccccc3)n(C)c3ccccc23)nnc1-c1ccncc1` the Potency was inconclusive: 22.4 µM [inhibitor, single point].
For `O=C(CSc1nnc2ccccn12)N1CCc2ccccc21`, the Potency was “inactive”.
In the case of `COc1ccccc1NC(=S)N(Cc1ccc(C)cc1)Cc1ccccn1`, the Potency is reported as inconclusive: 35.5 µM [inhibitor, single point].
In the case of `COc1ccc(N2C(=O)C3CCCN3C2c2cccc(F)c2)cc1Cl` (stereo not given), the Potency is reported as inconclusive: 0.651 µM [inhibitor, full curve, poor fit].
In the case of `COc1ccc(OC2CCN(S(=O)(=O)c3ccc(F)cc3)CC2)cc1`, the Potency is reported as inconclusive: 20 µM [inhibitor, partial curve, poor fit].
With `CCOC(=O)c1sc(NC(=O)CCN2CCC(C)CC2)c(C(=O)OCC)c1C` the Potency was “inactive”.
In the case of `Cc1nc2ccccn2c1C(=O)N/N=C/c1ccc(CNC(=O)C(=O)Nc2ccccc2)o1`, the Potency is reported as “inactive”.
For `CCOC(=O)c1nnn(CC(=O)N2N=C(c3cc(C)ccc3C)CC2c2ccc(OC)cc2)c1C(=O)OCC` (stereo not given), the Potency was inconclusive: 14.6 µM [inhibitor, partial curve, poor fit].
In the case of `COc1cccc(C(=O)Nc2ccc(S(=O)(=O)N(Cc3ccccc3)c3ccccc3)cc2)c1`, the Potency is reported as inconclusive: 8.91 µM [inhibitor, partial curve, poor fit].
For `Cc1ccc(CONC(=O)c2ccccc2)cc1`, the Potency was “inactive”.
In the case of `Cn1cc([N+](=O)[O-])c(C(=O)N/N=C/c2ccc([N+](=O)[O-])cc2)n1`, the Potency is reported as inconclusive: 5.62 µM [activator, single point].
With `CCCCC(C(=O)NC(C)(C)C)N(Cc1ccccc1Cl)C(=O)c1snc(C(N)=O)c1N` (stereo not given) the Potency was inconclusive: 35.5 µM [inhibitor, single point].
With `O=C(CN1CCN(C(c2ccccc2)c2ccccc2)CC1)N1N=CCC1c1ccccc1` (stereo not given) the Potency was active: 8.91 µM.
With `Cc1c(/C=N/NC(=O)c2cc(C(C)(C)C)[nH]n2)c2ccccc2n1C` the Potency was “inactive”.
For `O=C(COc1cccnc1[N+](=O)[O-])Nc1cc(Cl)ccc1Cl`, the Potency was inconclusive: 10 µM [activator, partial curve, poor fit].
In the case of `O=C(CCc1ccccc1)Nc1ccccc1F`, the Potency is reported as inconclusive: 0.562 µM [activator, full curve, poor fit].
In the case of `CCC(c1nnc(SCC(=O)NC2CCCCC2)n1Cc1ccccc1)N(C)C` (stereo not given), the Potency is reported as “inactive”.
With `COc1ccc(C(CNC(=O)Cc2ccc(-c3ccccc3)cc2)N(C)C)cc1` (stereo not given) the Potency was active: 11.2 µM.
In the case of `Cc1c(/C=N/NC(=O)c2ccccc2O)c2ccccn2c1C(=O)c1ccc(F)cc1`, the Potency is reported as active: 11.2 µM.
For `CC1C(=O)N2CCCc3cc(S(=O)(=O)N4CCN(c5cccc(Cl)c5)CC4)cc1c32` (stereo not given), the Potency was inconclusive: 25.1 µM [inhibitor, single point].
For `Cc1cc(Br)ccc1NC(=O)CCSc1ccccc1`, the Potency was “inactive”.
In the case of `CC(=O)NN1C(=O)/C(=C\c2ccc(C)cc2)SC1=S`, the Potency is reported as “inactive”.
In the case of `O=C(COc1ccccc1)N/N=C/c1ccc(O[C@@H]2O[C@H](CO)[C@@H](O)[C@H](O)[C@H]2O)cc1`, the Potency is reported as inconclusive: 5.62 µM [activator, single point].
For `CCCN(CCC)C(=O)Cn1c(=O)n(Cc2ccc(C(=O)NCCc3ccc(Cl)cc3)cc2)c(=O)c2ccccc21`, the Potency was “inactive”.
For `Cc1nn(-c2ccc(F)cc2F)c2c1-c1nc(N3CCCC3)ncc1CC2`, the Potency was inconclusive: 29.1 µM [inhibitor, single point].
For `O=C(CSc1nc2ccccc2c(=O)[nH]1)Nc1ccc(Br)cc1`, the Potency was “inactive”.
With `Cc1ccc2oc(C(=O)Nc3sc4c(c3C(=O)NCc3cccnc3)CCCC4)cc(=O)c2c1` the Potency was “inactive”.
For `c1ccc(-c2nn(-c3ccccc3)[n+](-c3ccccc3)n2)cc1`, the Potency was inconclusive: 28.2 µM [inhibitor, single point].
In the case of `CCOC(=O)C1(Cc2ccccc2Cl)CCN(S(C)(=O)=O)CC1`, the Potency is reported as inconclusive: 31.6 µM [activator, single point].
For `Cc1ccc(C(=O)N2CC(=O)Nc3ccc(F)cc3C2c2ccccc2)cc1[N+](=O)[O-]` (stereo not given), the Potency was inconclusive: 11.2 µM [inhibitor, partial curve, poor fit].
In the case of `CC1CCCN(CC(O)COc2ccc(-c3ccccc3)cc2)C1` (stereo not given), the Potency is reported as inconclusive: 17.8 µM [inhibitor, partial curve, poor fit].
With `COC(=O)CC1Oc2ccc(C)cc2-n2cc(-c3ccc(C)cc3)nc21` (stereo not given) the Potency was “inactive”.
With `Cc1ccc(OCC(=O)N2CCc3ccccc32)cc1` the Potency was inconclusive: 5.01 µM [activator, single point].
For `CCCCN(CC(=O)Nc1cccc(S(=O)(=O)N2CCCC2)c1)Cc1nc2ccccc2c(=O)[nH]1`, the Potency was inconclusive: 35.5 µM [inhibitor, single point].
